Test results: the M2OR odorant receptor database
The list shows a part of the results, in another mix than the full data. The calls were merged from several studies; some rest on single wells. Some of the results follow.

Sequences of proteins named here, by UniProt entry; tags and fusion partners are left off. A change or cut given only in a name is not applied to a line headed by its entry.
UniProt Q8NGI0: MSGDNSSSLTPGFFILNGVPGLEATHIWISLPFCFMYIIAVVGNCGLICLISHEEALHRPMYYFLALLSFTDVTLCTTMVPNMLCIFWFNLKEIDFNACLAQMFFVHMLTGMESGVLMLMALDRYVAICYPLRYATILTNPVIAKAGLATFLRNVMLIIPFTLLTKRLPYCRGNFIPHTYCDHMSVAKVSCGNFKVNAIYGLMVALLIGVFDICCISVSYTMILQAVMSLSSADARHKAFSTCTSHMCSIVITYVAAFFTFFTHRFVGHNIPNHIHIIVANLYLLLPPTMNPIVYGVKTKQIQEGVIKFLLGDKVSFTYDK
UniProt Q8NGF1: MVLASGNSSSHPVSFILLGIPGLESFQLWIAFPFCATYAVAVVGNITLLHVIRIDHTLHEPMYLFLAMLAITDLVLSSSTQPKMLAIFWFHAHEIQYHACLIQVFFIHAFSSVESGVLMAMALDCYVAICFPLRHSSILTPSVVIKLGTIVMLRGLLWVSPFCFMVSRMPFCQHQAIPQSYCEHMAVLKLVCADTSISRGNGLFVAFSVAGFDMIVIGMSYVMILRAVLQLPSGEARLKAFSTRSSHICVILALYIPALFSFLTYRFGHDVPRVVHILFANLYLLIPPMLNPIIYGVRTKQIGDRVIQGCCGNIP

Key:
Conditions in all cases: stereoisomer not certain
[1] = target: T1, OR52N5 (Homo sapiens) (UniProt Q8NH56)
T1 sequence (whole entry): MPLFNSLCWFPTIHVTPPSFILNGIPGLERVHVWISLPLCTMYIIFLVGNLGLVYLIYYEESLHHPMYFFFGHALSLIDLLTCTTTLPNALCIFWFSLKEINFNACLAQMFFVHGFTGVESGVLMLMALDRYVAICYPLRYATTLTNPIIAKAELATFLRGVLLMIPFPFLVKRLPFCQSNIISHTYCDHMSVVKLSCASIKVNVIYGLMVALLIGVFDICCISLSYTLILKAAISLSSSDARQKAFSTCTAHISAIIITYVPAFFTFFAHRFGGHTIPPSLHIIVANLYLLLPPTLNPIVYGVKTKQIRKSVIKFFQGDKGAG
Summary of the method: (§1)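 Assay methods differ from source to source, frequently being transient luciferase assays in mammalian cell lines. For each receptor–molecule pair, the label responsive (active) applies when the original authors judged the measured signal statistically different from baseline, and non-responsive (inactive) applies otherwise.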

[2] = target: T2, OR56A1 (Homo sapiens) (UniProt Q8NGH5)
T2 sequence (whole entry): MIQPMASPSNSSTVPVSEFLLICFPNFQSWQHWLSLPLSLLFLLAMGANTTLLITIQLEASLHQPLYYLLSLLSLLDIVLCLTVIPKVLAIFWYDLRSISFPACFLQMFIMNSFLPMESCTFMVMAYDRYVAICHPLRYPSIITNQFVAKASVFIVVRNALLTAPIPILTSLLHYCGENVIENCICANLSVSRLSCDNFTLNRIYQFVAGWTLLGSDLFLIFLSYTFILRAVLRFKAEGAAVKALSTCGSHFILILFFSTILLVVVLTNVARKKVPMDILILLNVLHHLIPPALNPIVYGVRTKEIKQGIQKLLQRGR
Summary of the method: as §1

[3] = target: T3, OR56A4 (Homo sapiens) (UniProt Q8NGH8)
T3 sequence (whole entry): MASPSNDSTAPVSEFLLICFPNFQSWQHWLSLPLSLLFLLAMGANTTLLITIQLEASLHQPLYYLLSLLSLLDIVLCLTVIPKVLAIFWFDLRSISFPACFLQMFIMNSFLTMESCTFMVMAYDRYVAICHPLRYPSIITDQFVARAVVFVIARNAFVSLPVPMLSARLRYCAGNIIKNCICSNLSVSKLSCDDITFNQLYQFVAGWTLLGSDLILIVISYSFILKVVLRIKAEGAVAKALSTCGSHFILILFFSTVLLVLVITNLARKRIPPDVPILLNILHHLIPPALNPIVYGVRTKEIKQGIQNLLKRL
Summary of the method: as §1

[4] = target: T4, OR56A5 (Homo sapiens) (UniProt P0C7T3)
T4 sequence (whole entry): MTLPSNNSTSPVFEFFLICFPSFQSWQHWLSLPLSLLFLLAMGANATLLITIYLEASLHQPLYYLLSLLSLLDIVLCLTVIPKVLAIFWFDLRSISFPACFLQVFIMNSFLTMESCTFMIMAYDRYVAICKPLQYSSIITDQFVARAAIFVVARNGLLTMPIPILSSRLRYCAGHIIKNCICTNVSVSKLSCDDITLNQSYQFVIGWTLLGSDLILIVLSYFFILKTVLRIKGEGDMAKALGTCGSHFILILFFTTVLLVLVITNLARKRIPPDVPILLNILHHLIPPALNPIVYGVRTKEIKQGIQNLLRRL
Summary of the method: as §1

[5] = tested on: T5, OR5A1
T5 sequence (whole entry): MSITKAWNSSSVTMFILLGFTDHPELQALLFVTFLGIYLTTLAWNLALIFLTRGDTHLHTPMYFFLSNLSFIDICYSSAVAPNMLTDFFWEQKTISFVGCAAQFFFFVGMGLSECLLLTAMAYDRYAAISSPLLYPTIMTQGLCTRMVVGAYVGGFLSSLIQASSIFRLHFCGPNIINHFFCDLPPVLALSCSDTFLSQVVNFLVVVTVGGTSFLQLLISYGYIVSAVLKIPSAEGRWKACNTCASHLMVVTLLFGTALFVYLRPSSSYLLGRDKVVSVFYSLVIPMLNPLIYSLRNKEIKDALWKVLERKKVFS
Summary of the method: as §1

[6] = tested on: T6, OR5A1; remark: listed apart in the source
T6 sequence (whole entry): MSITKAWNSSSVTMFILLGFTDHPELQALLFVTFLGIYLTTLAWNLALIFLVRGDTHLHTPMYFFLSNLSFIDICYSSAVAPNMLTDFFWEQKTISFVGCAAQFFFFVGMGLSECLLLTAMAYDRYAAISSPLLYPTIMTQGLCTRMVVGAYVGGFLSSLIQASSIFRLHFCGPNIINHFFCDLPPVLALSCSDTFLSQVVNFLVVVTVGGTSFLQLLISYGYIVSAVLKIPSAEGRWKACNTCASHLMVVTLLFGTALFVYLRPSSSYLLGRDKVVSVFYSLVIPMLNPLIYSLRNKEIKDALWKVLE
Summary of the method: as §1

[7] = tested on: T7, OR5A1; remark: listed apart in the source
T7 sequence (whole entry): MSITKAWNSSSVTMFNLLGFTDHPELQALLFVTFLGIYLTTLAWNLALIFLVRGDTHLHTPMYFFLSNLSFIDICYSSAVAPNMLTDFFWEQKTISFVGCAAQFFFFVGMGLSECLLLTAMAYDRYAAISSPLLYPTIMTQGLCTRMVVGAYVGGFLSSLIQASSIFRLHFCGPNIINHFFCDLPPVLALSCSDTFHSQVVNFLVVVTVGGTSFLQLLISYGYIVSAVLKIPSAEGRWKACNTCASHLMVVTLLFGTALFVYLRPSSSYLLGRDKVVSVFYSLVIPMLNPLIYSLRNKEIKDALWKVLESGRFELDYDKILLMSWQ
Summary of the method: as §1

[8] = target: T8, OR5A2 (Homo sapiens) (UniProt Q8NGI9)
T8 sequence (whole entry): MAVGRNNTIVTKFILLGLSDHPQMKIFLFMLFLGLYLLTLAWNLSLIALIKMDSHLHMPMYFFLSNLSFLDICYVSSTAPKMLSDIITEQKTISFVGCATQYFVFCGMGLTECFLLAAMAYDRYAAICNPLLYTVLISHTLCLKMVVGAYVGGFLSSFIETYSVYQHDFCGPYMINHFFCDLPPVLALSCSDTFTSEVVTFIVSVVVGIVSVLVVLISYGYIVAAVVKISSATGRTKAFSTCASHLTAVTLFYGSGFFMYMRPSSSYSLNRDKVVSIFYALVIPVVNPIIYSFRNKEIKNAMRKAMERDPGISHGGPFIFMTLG
Summary of the method: as §1

[9] = target: T9, OR5AK2 (Homo sapiens) (UniProt Q8NH90)
T9 sequence (whole entry): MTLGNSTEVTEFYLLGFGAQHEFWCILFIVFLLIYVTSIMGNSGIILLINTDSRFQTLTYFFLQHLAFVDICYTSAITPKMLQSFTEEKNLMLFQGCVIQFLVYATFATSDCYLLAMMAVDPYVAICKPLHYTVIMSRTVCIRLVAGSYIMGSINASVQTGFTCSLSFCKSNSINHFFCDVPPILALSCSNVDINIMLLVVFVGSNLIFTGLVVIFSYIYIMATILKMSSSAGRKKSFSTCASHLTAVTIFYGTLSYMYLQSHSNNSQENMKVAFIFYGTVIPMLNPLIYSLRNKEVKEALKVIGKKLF
Summary of the method: as §1

[10] = target: T10, OR5AC2 (Homo sapiens) (UniProt Q9NZP5)
T10 sequence (whole entry): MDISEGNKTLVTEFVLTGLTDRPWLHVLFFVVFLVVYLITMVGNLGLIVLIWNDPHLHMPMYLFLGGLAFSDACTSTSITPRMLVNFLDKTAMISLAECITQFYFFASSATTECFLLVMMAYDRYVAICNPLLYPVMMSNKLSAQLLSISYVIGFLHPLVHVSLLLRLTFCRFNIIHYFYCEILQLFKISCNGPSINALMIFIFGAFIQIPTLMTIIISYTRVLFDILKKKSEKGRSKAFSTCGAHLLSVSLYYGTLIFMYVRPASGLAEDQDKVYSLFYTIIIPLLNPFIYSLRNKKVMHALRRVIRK
Summary of the method: as §1

[11] = target: T11, OR52N1 (Homo sapiens) (UniProt Q8NH53)
T11 sequence (whole entry): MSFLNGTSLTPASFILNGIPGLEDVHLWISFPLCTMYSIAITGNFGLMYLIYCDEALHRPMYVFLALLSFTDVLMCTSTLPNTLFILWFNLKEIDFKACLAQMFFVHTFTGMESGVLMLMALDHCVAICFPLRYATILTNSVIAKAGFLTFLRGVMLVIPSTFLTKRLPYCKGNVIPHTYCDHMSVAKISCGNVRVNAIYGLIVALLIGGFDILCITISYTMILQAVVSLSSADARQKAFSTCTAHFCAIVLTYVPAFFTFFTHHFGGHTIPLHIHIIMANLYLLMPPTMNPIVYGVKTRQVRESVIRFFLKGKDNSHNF
Summary of the method: as §1

[12] = target: OR52N2 (Homo sapiens) (UniProt Q8NGI0)
Summary of the method: as §1

[13] = target: T12, OR52N4 (Homo sapiens) (UniProt Q8NGI2)
T12 sequence (whole entry): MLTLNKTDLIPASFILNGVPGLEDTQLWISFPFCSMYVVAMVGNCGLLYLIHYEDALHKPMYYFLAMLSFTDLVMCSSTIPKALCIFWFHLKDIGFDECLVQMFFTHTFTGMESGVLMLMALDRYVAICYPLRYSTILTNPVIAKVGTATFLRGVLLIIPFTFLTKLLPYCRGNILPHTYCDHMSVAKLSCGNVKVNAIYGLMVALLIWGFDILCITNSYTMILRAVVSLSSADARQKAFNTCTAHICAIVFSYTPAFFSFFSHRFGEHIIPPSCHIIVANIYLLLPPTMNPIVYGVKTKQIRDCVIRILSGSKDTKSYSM
Summary of the method: as §1

[14] = target: OR52R1 (Homo sapiens) (UniProt Q8NGF1)
Summary of the method: as §1

[15] = target: T13, OR52W1 (Homo sapiens) (UniProt Q6IF63)
T13 sequence (whole entry): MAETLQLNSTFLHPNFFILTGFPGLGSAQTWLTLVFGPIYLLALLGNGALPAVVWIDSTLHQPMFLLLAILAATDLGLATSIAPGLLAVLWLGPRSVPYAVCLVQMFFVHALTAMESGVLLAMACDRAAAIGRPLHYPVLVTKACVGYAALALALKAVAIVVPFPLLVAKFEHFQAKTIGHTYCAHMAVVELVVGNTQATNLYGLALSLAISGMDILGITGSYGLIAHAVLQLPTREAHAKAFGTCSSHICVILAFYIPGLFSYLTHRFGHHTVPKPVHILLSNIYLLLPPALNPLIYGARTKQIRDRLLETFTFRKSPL
Summary of the method: as §1

[16] = target: T14, OR56A3 (Homo sapiens) (UniProt Q8NH54)
T14 sequence (whole entry): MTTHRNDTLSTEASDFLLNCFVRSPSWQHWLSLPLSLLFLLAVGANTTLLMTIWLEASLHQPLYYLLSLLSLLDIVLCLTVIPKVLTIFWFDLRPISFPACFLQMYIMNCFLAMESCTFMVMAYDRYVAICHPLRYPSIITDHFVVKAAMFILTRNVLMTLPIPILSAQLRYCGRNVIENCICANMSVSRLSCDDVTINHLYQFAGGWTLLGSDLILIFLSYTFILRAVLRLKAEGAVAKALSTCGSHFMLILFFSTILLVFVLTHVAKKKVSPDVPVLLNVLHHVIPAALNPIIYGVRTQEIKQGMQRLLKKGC
Summary of the method: as §1

[17] = target: T15, OR56B1 (Homo sapiens) (UniProt Q8NGI3)
T15 sequence (whole entry): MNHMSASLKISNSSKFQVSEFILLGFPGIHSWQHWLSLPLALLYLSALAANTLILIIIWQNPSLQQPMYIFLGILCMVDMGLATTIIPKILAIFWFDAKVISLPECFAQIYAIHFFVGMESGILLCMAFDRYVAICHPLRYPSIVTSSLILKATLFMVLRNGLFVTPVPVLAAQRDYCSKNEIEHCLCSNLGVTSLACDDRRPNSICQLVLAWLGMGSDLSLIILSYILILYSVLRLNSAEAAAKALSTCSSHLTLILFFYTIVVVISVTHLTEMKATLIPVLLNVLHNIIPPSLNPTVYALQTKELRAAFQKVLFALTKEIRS
Summary of the method: as §1

[18] = target: T16, OR56B4 (Homo sapiens) (UniProt Q8NH76)
T16 sequence (whole entry): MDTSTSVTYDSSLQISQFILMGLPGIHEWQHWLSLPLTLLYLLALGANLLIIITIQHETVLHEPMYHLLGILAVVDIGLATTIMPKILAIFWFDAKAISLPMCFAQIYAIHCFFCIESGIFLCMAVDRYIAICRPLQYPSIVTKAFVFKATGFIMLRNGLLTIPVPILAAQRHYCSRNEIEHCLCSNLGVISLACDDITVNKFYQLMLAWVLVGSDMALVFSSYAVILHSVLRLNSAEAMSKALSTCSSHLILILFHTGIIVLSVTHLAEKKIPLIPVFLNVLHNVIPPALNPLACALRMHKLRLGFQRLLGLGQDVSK
Summary of the method: as §1

Measured: odorant receptor agonist call

CCCCCCCC=O
active: [4]
inactive: [1] | [2] | [3] | [5] | [6] | [7] | [8] | [9]

CC(C)CCC(=O)O
inactive: [1] | [2] | [3] | [4] | [5] | [6] | [7] | [8] | [9]

O=C1CCCCCCCCCCCCCCO1
inactive: [1] | [2] | [3] | [4] | [5] | [6] | [7] | [8] | [10] | [9]

C=CCc1ccc(OC)c(OC)c1
inactive: [1] | [2] | [3] | [4] | [5] | [6] | [7] | [8] | [9]

CCCC(=O)O
not listed: [10]
inactive: all other assays above
